Values from PubChem BioAssay AID1259267 (Sanger Institute, 2017)

Aim: 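Kinase and colorectal-mutated gene knock-downs lethal to GP5D cells alone or with drugs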 (primary screen)
Cell system: human GP5D colorectal cancer cells
Knock-down reagent: siRNA pool against human genes
Challenge: anchor drugs at low dose: BYL719 1 µM, cetuximab 5 µg/ml, trametinib 10 nM, or DMSO vehicle
Measured: 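Viability against non-targeting pool, replicate mean: robust z-score for knock-down alone, fraction with DMSO, synergy with BYL719 1 µM, cetuximab 5 µg/ml, trametinib 10 nM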
Direction: robust z-score, knock-down alone and viability with DMSO: higher = more viable cells; synergy score with trametinib and synergy score with BYL719 and synergy score with cetuximab: higher = stronger synthetic lethal synergy with drug
Active means: 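a robust z-score below -3 for the knock-down by itself makes a gene active, i.e. essential alone; synergy scores are ignored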
Meaning of the calls: active = essential alone; inactive = not essential
Shown is a random part of 794 reagents. In the full data, 9 (1.1%) were called active. 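Viability capped at 1; calls reflect loss of viability from knock-down alone, not synergy with drugs.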 A number with no mark means an inactive call. Reagent sequences are not shown. Not given: the amount of reagent, the time to read-out.

gene knocked down,"robust z-score, knock-down alone",viability with DMSO (fraction of control),synergy score with trametinib,synergy score with BYL719,synergy score with cetuximab
RIOK3 (RIO kinase 3),0.568,0.947,0.0313,-0.0927,-0.156
DYRK3 (dual specificity tyrosine phosphorylation regulated kinase 3),0.817,1,0.179,-0.0158,-0.125
DNMT3A (DNA methyltransferase 3 alpha),-1.81,0.442,-0.0102,-0.239,0.0334
FRK (fyn related Src family tyrosine kinase),0.817,1,-0.197,-0.361,-0.142
PHKA2 (phosphorylase kinase regulatory subunit alpha 2),0.797,0.996,-0.2,-0.209,-0.146
AMER1 (APC membrane recruitment protein 1),0.817,1,0.0608,0.0614,0.0123
GK (glycerol kinase),0.817,1,0.0177,-0.0844,-0.142
TBK1 (TANK binding kinase 1),-1.48,0.513,-0.217,-0.342,-0.271
PDIK1L (PDLIM1 interacting kinase 1 like),0.817,1,-0.0604,-0.322,-0.142
STK17B (serine/threonine kinase 17b),0.817,1,0.0877,0.0679,-0.0178
TAF1L (TATA-box binding protein associated factor 1 like),0.817,1,0.0384,-0.119,0.0341
PI4K2B (phosphatidylinositol 4-kinase type 2 beta),0.817,1,0.0271,0.00583,0.0728
MAGI1,0.0201,0.831,0.221,-0.0173,-0.0358
NTRK3 (neurotrophic receptor tyrosine kinase 3),-1.19,0.576,-0.22,-0.439,-0.198
BRD4 (bromodomain containing 4),0.698,0.975,0.325,0.0579,0.0766
NUP98 (nucleoporin 98 and 96 precursor),-3.16 (active),0.158,-0.0475,-0.175,-0.0416
IKBKG,0.817,1,0.00823,0.0719,-0.0905
TRIB2 (tribbles pseudokinase 2),0.551,0.944,0.171,0.0962,0.159
ITSN1 (intersectin 1),-0.865,0.644,0.166,-0.0739,-0.0558
PDGFRA (platelet derived growth factor receptor alpha),0.817,1,0.276,0.0127,-0.0824
GOLGA5 (golgin A5),0.817,1,0.00756,-0.133,-0.142
MYO3A (myosin IIIA),-1.42,0.526,-0.189,-0.371,-0.256
TPK1 (thiamin pyrophosphokinase 1),-0.894,0.637,0.0689,0.0306,0.0179
NRBP2 (nuclear receptor binding protein 2),-2.83,0.226,-0.072,-0.104,-0.00445
MAP2K7 (mitogen-activated protein kinase kinase 7),-1.5,0.509,0.0695,-0.137,0.0605
DTYMK (deoxythymidylate kinase),-0.176,0.789,-0.13,-0.108,-0.189
PIK3C3 (phosphatidylinositol 3-kinase catalytic subunit type 3),0.817,1,-0.151,-0.0913,-0.142
ROCK2 (Rho associated coiled-coil containing protein kinase 2),-0.651,0.689,0.103,-0.0372,-0.00152
ATR (ATR checkpoint kinase),0.817,1,0.157,-0.139,-0.142
LIMK1 (LIM domain kinase 1),0.817,1,-0.197,-0.27,-0.142
CAMK2G (calcium/calmodulin dependent protein kinase II gamma),0.715,0.978,-0.119,-0.249,-0.161
CERT1 (ceramide transporter 1),-0.167,0.791,-0.0891,-0.0261,-0.142
WNK2 (WNK lysine deficient protein kinase 2),0.817,1,-0.126,-0.174,-0.142
MAP4K2 (mitogen-activated protein kinase kinase kinase kinase 2),0.209,0.871,-0.0691,-0.191,-0.18
MAPK9 (mitogen-activated protein kinase 9),0.817,1,-0.197,-0.271,-0.142
CHEK1 (checkpoint kinase 1),-2.19,0.363,-0.0594,-0.131,-0.0194
MAP4K5 (mitogen-activated protein kinase kinase kinase kinase 5),-3.54 (active),0.0757,-0.0214,-0.211,-0.0844
EPHA2 (EPH receptor A2),0.285,0.887,-0.258,-0.38,-0.213
MAP2K3 (mitogen-activated protein kinase kinase 3),-0.829,0.651,-0.0136,-0.167,-0.2
CDKN2D (cyclin dependent kinase inhibitor 2D),0.788,0.994,0.234,0.0125,0.0319
"BRAF (B-Raf proto-oncogene, serine/threonine kinase)",-1.61,0.485,0.0775,-0.155,0.0161
MST1R (macrophage stimulating 1 receptor),0.817,1,0.283,0.0196,0.0101
TP53RK (TP53 regulating kinase),0.817,1,0.156,-0.0455,-0.0966
RPS6KB1 (ribosomal protein S6 kinase B1),0.807,0.998,0.101,0.125,0.103
RPS6KA6 (ribosomal protein S6 kinase A6),0.817,1,0.238,-0.02,-0.142
FCSK (fucose kinase),0.817,1,0.018,-0.275,-0.142
PRKAG2 (protein kinase AMP-activated non-catalytic subunit gamma 2),0.817,1,-0.197,-0.361,-0.142
BMP2K (BMP2 inducible kinase),0.1,0.848,0.204,-0.104,0.16
NADK (NAD kinase),0.302,0.891,-0.285,-0.162,-0.115
PIK3R5 (phosphoinositide-3-kinase regulatory subunit 5),-1.37,0.537,-0.0327,-0.327,-0.142
